In PubChem BioAssay AID445 (National Center for Advancing Translational Sciences (NCATS), 2006) one finds AC50 data, which are given here for 61 compounds.

The other results are listed elsewhere or left out. These are further read-outs of the screen, such as a control signal, another cell line or another target. No call is given for them. The list favours compounds with an active or inconclusive main result. The note in brackets gives the kind of curve behind each potency; many fits are weak.

A short description of the assay: IkB Signaling. As to conditions: ABC-DLBCL IkBa-CBG/CBR dual luciferase ratio (green luciferase fused to IkBa over red control in OCI-Ly3 lymphoma cells), 4 h. In short, it runs like this: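 In this assay, an IκBα–CBG68 fusion accumulates when IKK-driven degradation is blocked; native CBR normalizes for cell number. OCI-Ly3 cells were treated 4 h with compound and doxycycline, then green and red light read after Chroma-Glo addition.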
[1] abbreviates: measured here: control luc red channel unless noted.
Where [2] appears, read: measured here: IkB-luc green channel.
Where [3] appears, read: measured here: control luc red channel.

In the case of `CC(C)c1ccc(C2=CC(c3cccc(Cl)c3)n3c(nc4ccccc43)N2)cc1` (stereo not drawn), the AC50 (usually the midpoint of the concentration-response curve, whichever way the signal moves) under setting [1] was 20 µM [falling, single point].

Turning to `CCc1cccc(NC(=O)Cn2c(=O)n(CCC(=O)NCc3ccccc3Cl)c(=O)c3sccc32)c1`, the concentration at half-maximal activity (AC50) under setting [1] is 6.31 µM [falling, partial curve].

Turning to `CCOc1ccc2c(c1)C(C)=CC(C)(C)N2`, the AC50 under setting [1] is 15.8 µM [rising, full curve] [measured here: IkB-luc green channel].

On to `Oc1c(C(c2ccccc2)N2CCOCC2)sc2nc(-c3ccco3)nn12` (stereo not drawn), for which the concentration at half-maximal activity (AC50) under setting [1] was 20 µM [rising, single point].

Take `Nc1c(C(=O)Nc2cccc(F)c2)nnn1-c1cccc(C(F)(F)F)c1`: the AC50 under setting [1] is 0.2 µM [rising, full curve].

For the compound `Cc1cc(C)cc(NC(=O)c2sc3nc4n(c(=O)c3c2C)N=C(c2ccccc2)CS4)c1`, the AC50 under setting [1] is 0.0631 µM [falling, full curve, poor fit].

As to `CCOc1ccc(N2CC(c3nc4ccccc4n3CCCCOc3ccc(OC)cc3)CC2=O)cc1` (stereo not drawn), under setting [1], the AC50 was 15.8 µM [falling, partial curve].

On to `COc1ccc(C2=C(C)C(=O)N(Cc3ccc(C(=O)NC(C)c4ccccc4)cc3)S2(=O)=O)cc1` (stereo not drawn), for which the AC50 under setting [1] is 10 µM [falling, partial curve].

`Cc1c(C(=O)O)cnc2cc(-c3ccc(Cl)cc3)nn12`: the AC50 under setting [1] is 3.98 µM [falling, partial curve].

Take `Cc1cccc(N2C(=O)CSC23C(=O)N(CC(=O)Nc2cccc(Cl)c2)c2ccccc23)c1` (stereo not drawn): the half-maximal activity concentration (AC50) under setting [1] is 12.6 µM [falling, partial curve].

With `O=C(NC1CCCCCC1)C1c2ccccc2C(=O)N1Cc1ccc(F)cc1` (stereo not drawn), the concentration at half-maximal activity (AC50) under setting [1] is 0.631 µM [falling, partial curve].

With `O=C(NCc1ccco1)C(c1cccs1)N(C(=O)C1COc2ccccc2O1)c1cccc(O)c1` (stereo not drawn), under setting [1], the half-maximal activity concentration (AC50) was 25.1 µM [falling, single point].

In the case of `COc1ccccc1C(=O)NCCn1cc(SCC(=O)Nc2nnc(C)s2)c2ccccc21`, the half-maximal activity concentration (AC50) under setting [1] is 31.6 µM [falling, single point].

As to `Cc1nc2ccccc2n1CCc1nc2c3ccccc3nc(SCC(=O)Nc3cccc(C(F)(F)F)c3)n2n1`, the half-maximal activity concentration (AC50) under setting [1] was 12.6 µM [falling, partial curve].

As for `Cc1cc(C)nc(NS(=O)(=O)c2ccc(NC(=O)c3ccccc3O)cc2)n1`, under setting [1], the AC50 was 5.01 µM [rising, partial curve].

`CCCCOc1ccc(C(=O)N2CC(=O)Nc3ccc(Br)cc3C2c2ccc(F)cc2)cc1` (stereo not drawn): under setting [1], the concentration at half-maximal activity (AC50) is 7.94 µM [falling, partial curve].

As to `COc1ccc(Br)cc1Cn1nnc(C(=O)Nc2ccc(C)cc2C)c1N`, the concentration at half-maximal activity (AC50) under setting [1] is 39.8 µM [falling, single point].

Take `Cc1cc(C)cc(-n2c(SCC(=O)N3CCCC3)nc3c([nH]c4ccccc43)c2=O)c1`: the AC50 under setting [1] was 2.51 µM [rising, full curve, poor fit].

Consider `Cn1c(=O)n(-c2ccc3c(c2)OCO3)c2nc(-c3ccc(Cl)cc3)nc(C(N)=O)c21`, for which, under setting [1], the AC50 was 31.6 µM [rising, single point].

For the compound `O=C(Cn1nc(-c2ccccc2)c2cnc3ccccc3c21)Nc1ccccc1`, the AC50 under setting [1] is 10 µM [falling, partial curve].

Take `Cc1ccc(Cn2nnc3sc4c(c3c2=O)CCC(C)C4)cc1` (stereo not drawn): the AC50 under setting [1] is 0.398 µM [rising, full curve, poor fit].

In the case of `Cc1cccc(N2CCN(C(=O)Cn3ccc4ccccc4c3=O)CC2)c1C`, the half-maximal activity concentration (AC50) under setting [1] is 12.6 µM [falling, partial curve].

In the case of `COc1ccccc1CC(=N)N1C[C@@H]2C(=O)CCC(c3ccccc3)(c3ccccc3)[C@@H]2C1`, under setting [1], the concentration at half-maximal activity (AC50) was 39.8 µM [falling, single point].

As to `Nn1c(SCC(=O)Nc2ccc(F)cc2)nnc1-c1cccnc1`, under setting [1], the concentration at half-maximal activity (AC50) was 10 µM [falling, partial curve].

For the compound `Cc1cc(NC(=O)c2oc3ccccc3c2C)ccc1-n1cnnn1`, under setting [1], the half-maximal activity concentration (AC50) was 39.8 µM [falling, single point].

Regarding `CCCCOc1ccc(C(=O)Nc2ccc(S(=O)(=O)Nc3nc(C)cc(C)n3)cc2)cc1`, under setting [1], the AC50 is 7.94 µM [falling, partial curve].

Consider `CCCc1ccc(OCc2ccc(C(=O)OC)o2)c(OC)c1`, for which the AC50 under setting [1] was 3.98 µM [falling, partial curve].

Turning to `Cc1nn2c(C)c(C(=O)N3CCN(c4ccccc4F)CC3)cnc2c1-c1ccc(F)cc1`, under setting [1], the half-maximal activity concentration (AC50) was 12.6 µM [falling, partial curve].

As to `CCN(CC)CCC[C@H](C)Nc1c2ccc(Cl)cc2nc2ccc(OC)cc12`, the half-maximal activity concentration (AC50) was 39.8 µM [falling, partial curve, poor fit] under setting [2] and 10 µM [falling, partial curve] under setting [3].

Regarding `O=C(Nc1ccc(F)c(Cl)c1)C1CCN(C(=O)c2ccc(F)cc2)CC1`, the AC50 under setting [1] was 39.8 µM [falling, single point].

Turning to `CCOc1cc(-c2cc(-c3ccc(N)cc3)nc(N)c2C#N)ccc1O`, the AC50 under setting [1] is 39.8 µM [falling, single point].

In the case of `CCc1ccc2nc(NC(=O)c3cc(C)on3)sc2c1`, under setting [1], the AC50 is 39.8 µM [falling, single point].

Take `COc1ccc(Cl)cc1NC(=O)CSC1=Nc2ccccc2C2=NC(CCC(=O)NCc3ccc(F)cc3)C(=O)N12` (stereo not drawn): the AC50 under setting [1] was 7.94 µM [falling, full curve].

As for `COc1ccc(NC(=O)C2CCN(S(=O)(=O)c3ccc4[nH]c(=O)ccc4c3)CC2)cc1Cl`, the half-maximal activity concentration (AC50) reads like this: under setting [2], 39.8 µM [rising, single point]; under setting [3], 31.6 µM [rising, single point].

As for `CCc1nnc(SCc2cccc(F)c2)c2cc3sc(C)cc3n12`, the AC50 under setting [1] is 39.8 µM [falling, single point].

With `CCOc1ccc(N2CC(c3nc4ccccc4n3CCCOc3ccccc3OC)CC2=O)cc1` (stereo not drawn), the AC50 under setting [1] is 15.8 µM [falling, partial curve].

For `O=C(Nc1nonc1-c1ccc(Cl)cc1)c1ccccc1F`, the AC50 under setting [1] is 0.631 µM [falling, full curve].

As to `Cn1c(=O)oc2cc(S(=O)(=O)Nc3ccc4c(c3)OCO4)ccc21`, under setting [1], the AC50 is 10 µM [falling, partial curve].

On to `CC(C)Cn1c(N)c(C(=O)CSc2ccc3c(c2)OCCO3)c(=O)n(C)c1=O`, for which, under setting [1], the AC50 was 3.98 µM [falling, partial curve].

Consider `Cc1ccccc1NC(=O)c1c(C)oc2ccc(O)c(CN3CCC(C)CC3)c12`, for which, under setting [1], the half-maximal activity concentration (AC50) was 20 µM [falling, partial curve].

As for `CCOc1ccc(-c2nnc(SCC(=O)Nc3cc(F)ccc3F)o2)cc1`, the AC50 under setting [1] was 10 µM [falling, partial curve].

Regarding `COc1ccc(NC(=O)c2c(-c3ccccc3Cl)noc2C)c(OC)c1`, the AC50 under setting [1] is 15.8 µM [falling, partial curve].

`COc1ccc(NC(=O)c2cnn(-c3ccc(F)cc3F)c2C2CCN(C(=O)OC(C)(C)C)CC2)cc1Cl`: under setting [1], the half-maximal activity concentration (AC50) was 25.1 µM [falling, partial curve].

For the compound `Nc1nonc1-c1nc2ccccc2n1Cc1c(Cl)cccc1Cl`, the AC50 under setting [1] is 10 µM [falling, partial curve].

As for `COc1ccc(CCNC(=O)c2ccc3nc(Cc4ccccc4)oc3c2)cc1OC`, the concentration at half-maximal activity (AC50) under setting [1] was 1 µM [falling, partial curve].

Take `O=C(C1CCCN(S(=O)(=O)c2cccc3nonc23)C1)N1CCN(c2ccccc2Cl)CC1` (stereo not drawn): the AC50 under setting [1] was 15.8 µM [falling, partial curve].

Take `CCOC(=O)Cn1c(=O)oc2cc(S(=O)(=O)N3CCN(c4ccccc4OC)CC3)ccc21`: the AC50 under setting [1] is 31.6 µM [falling, single point].

In the case of `O=C(NCCc1csc2nc(-c3ccccc3F)nn12)c1ccccc1C(F)(F)F`, the AC50 under setting [1] was 15.8 µM [falling, partial curve].

As for `CC(C)Oc1cccc(C(=O)Nc2ccc(CN3CCOCC3)cc2)c1`, under setting [1], the AC50 is 25.1 µM [falling, partial curve].

Consider `CCCCn1c(SCc2c(C)noc2C)nc2cc(S(N)(=O)=O)ccc21`, for which the AC50 under setting [1] was 12.6 µM [rising, partial curve] [measured here: IkB-luc green channel].

As for `Cc1ccc(Cl)cc1N(C)C(=O)c1noc2c1CCCCC2`, the concentration at half-maximal activity (AC50) under setting [1] was 25.1 µM [falling, partial curve].

Regarding `COc1ccccc1NC(=O)C1=C(C)Nc2nc(SCC(=O)c3ccc(C)cc3)nn2C1c1ccccc1C` (stereo not drawn), the AC50 under setting [1] was 0.251 µM [falling, full curve].

As for `COc1ccc(-n2cc(C(=O)N(C)c3cc(C)ccc3OC)c3ccccc3c2=O)cc1`, under setting [1], the AC50 was 20 µM [falling, partial curve].

Consider `CSCCC(NS(=O)(=O)c1ccc2c(c1)oc(=O)n2C)C(=O)NCc1ccc(F)cc1` (stereo not drawn), for which, under setting [1], the AC50 is 39.8 µM [falling, partial curve, poor fit].

As for `COc1ccc(NC(=O)c2sc3nc(C)c(C(=O)Nc4ccc(C)cc4C)c(-c4ccccc4Cl)c3c2N)cc1`, the AC50 under setting [1] was 0.501 µM [falling, full curve].

On to `CN(C)CCN(Cc1ccccc1)S(=O)(=O)c1ccc(-c2cc(C(F)(F)F)on2)s1`, for which the AC50 under setting [1] was 31.6 µM [falling, partial curve].

As to `CN(C)CCNC(=O)CCCn1c(=O)c2cccn2c2ccccc21`, under setting [1], the half-maximal activity concentration (AC50) was 20 µM [falling, partial curve].

Regarding `CCC(C)(C)n1nnnc1C(c1cc2ccc(C)cc2[nH]c1=O)N(Cc1cccnc1)Cc1ccco1` (stereo not drawn), the half-maximal activity concentration (AC50) under setting [1] was 25.1 µM [falling, partial curve].

As to `O=C(O)CCCCCNc1nc(=S)[nH]c2ccccc12`, under setting [1], the AC50 is 10 µM [falling, partial curve].

Regarding `Cc1ccc(CCNC(=O)c2ccc(CS(=O)(=O)c3ccc(Cl)cc3)o2)cc1`, under setting [1], the AC50 is 6.31 µM [falling, partial curve].

Regarding `CCOc1ccccc1NC(=O)n1ncc2cc(Cl)ccc21`, under setting [1], the half-maximal activity concentration (AC50) is 15.8 µM [falling, single point].
